Test results: publication PMC4605657
Results are given in words; binding and its absence hold for the method and conditions named.

The chains behind the UniProt entries cited, without tags or fusion partners.
UniProt J4W563: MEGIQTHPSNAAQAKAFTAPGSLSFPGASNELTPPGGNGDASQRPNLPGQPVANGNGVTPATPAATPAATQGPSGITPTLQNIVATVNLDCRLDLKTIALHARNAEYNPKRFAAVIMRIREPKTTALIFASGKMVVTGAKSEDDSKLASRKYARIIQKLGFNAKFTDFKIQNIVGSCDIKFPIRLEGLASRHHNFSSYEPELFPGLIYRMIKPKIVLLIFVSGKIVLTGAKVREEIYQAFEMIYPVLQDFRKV

Biological target: Beauveria bassiana TATA-binding protein (BbTBP) (Beauveria bassiana) (UniProt J4W563)
Assay: condition: only in the absence of DNA template (TBP = 1129 nM, MBF1 = 855 nM); native gel or EMSA; 6% non-denaturing PAGE, the two proteins combined in the absence of DNA template; TBP 1129 nM, MBF1 855 nM; 30 min at 37°C; same binding buffer; protein stain; both purified

Beauveria bassiana multiprotein bridging factor 1 (BbMBF1) (from UniProt J4WFU2 1-153)
binding: no binding
